# Data reported in the supplement of paper PMC6331611.
# ± gives the standard deviation of the averaged measurements. Over roughly 1,600 compounds, “normalized growth (OD600, IQM-normalized) in LPM” has its median near 1; the lowest 2% begin near 0.014. The list shows a part of the results.
# Test system: Salmonella enterica serovar Typhimurium SL1344
# Assay: normalized growth (OD600, IQM-normalized) in LPM (fraction of plate interquartile mean); higher = more bacterial growth (less inhibition)
# Conditions: LPM pH 5.8; 10 µM; 16 h
row,SMILES,normalized growth
1,CC(C)NCC(O)c1ccc(O)c(O)c1 (stereo not given),0.911 ± 0.013
2,COc1ccc2[nH]c([S@@+]([O-])Cc3ncc(C)c(OC)c3C)nc2c1,1.05 ± 0.017
3,CCCCCN(CCCCC)C(=O)C(CCC(=O)O)NC(=O)c1ccc(Cl)c(Cl)c1 (stereo not given),1.03 ± 0.015
4,Nc1nc2c(ncn2COCCO)c(=O)[nH]1,1.02 ± 0.032
5,COc1ccc(C(=O)CC(=O)c2ccc(C(C)(C)C)cc2)cc1,0.851 ± 0.1
6,COc1ccc(C(=O)c2ccccc2)c(O)c1,0.932 ± 0.015
7,COc1c(N2C[C@@H]3CCCN[C@@H]3C2)c(F)cc2c(=O)c(C(=O)O)cn(C3CC3)c12,0.0131 ± 0.0045
8,COc1ncnc(NS(=O)(=O)c2ccc(N)cc2)c1OC,1.02 ± 0.13
9,CC(=O)OCC(=O)[C@@]1(O)[C@H](C)C[C@H]2[C@@H]3CCC4=CC(=O)C=C[C@]4(C)[C@@]3(F)[C@@H](O)C[C@@]21C,0.985 ± 0.081
10,CCN(CC)CCOc1ccc2c(c1)C(=O)c1cc(OCCN(CC)CC)ccc1-2,1.02 ± 0.083
11,CC1(C)O[C@@H]2C[C@H]3[C@@H]4CCC5=CC(=O)C=C[C@]5(C)[C@H]4[C@@H](O)C[C@]3(C)[C@]2(C(=O)CO)O1,0.945 ± 0.056
12,O=C(CCCCCCC(=O)Nc1ccccc1)NO,1.21 ± 0.3
13,CC[C@H]1OC(=O)C[C@@H](O)[C@H](C)[C@@H](O[C@@H]2O[C@H](C)[C@@H](O[C@H]3C[C@@](C)(O)[C@@H](O)[C@H](C)O3)[C@H](N(C)C)[C@H]2O)[C@@H](CC=O)C[C@@H](C)C(=O)/C=C/C(C)=C/[C@@H]1CO[C@@H]1O[C@H](C)[C@@H](O)[C@@H](OC)[C@H]1OC,1.07 ± 0.032
14,CCCCC(CC)COC(=O)C(C#N)=C(c1ccccc1)c1ccccc1 (stereo not given),0.82 ± 0.0086
15,Nc1c2c(nc3ccccc13)CCCC2,0.962 ± 0.022
16,C/C(=C(\CCOP(=O)(O)O)SC(=O)c1ccccc1)N(C=O)Cc1cnc(C)nc1N,1.1 ± 0.045
17,CN(Cc1cnc2nc(N)nc(N)c2n1)c1ccc(C(=O)NC(CCC(=O)O)C(=O)O)cc1 (racemic),0.665 ± 0.054
18,C=C[C@@]1(C)CC(=O)[C@]2(O)[C@@]3(C)[C@@H](O)CCC(C)(C)[C@@H]3[C@H](O)[C@H](OC(C)=O)[C@@]2(C)O1,1.07 ± 0.019
19,CC1(C)S[C@@H]2[C@H](NC(=O)C(C(=O)O)c3ccccc3)C(=O)N2[C@H]1C(=O)O (stereo not given in full),1.07 ± 0.036
20,CCN(CC)CCOC(=O)C(Cc1cccc2ccccc12)CC1CCCO1 (stereo not given),0.989 ± 0.099
21,C[C@H](N)[C@H](O)c1cccc(O)c1,0.787 ± 0.045
22,O=C1CN(/N=C/c2ccc([N+](=O)[O-])o2)C(=O)N1,1.04 ± 0.024

# Compounds from the list above that contain four or more nitrogen atoms, in the order listed:
row,SMILES,normalized growth
4,Nc1nc2c(ncn2COCCO)c(=O)[nH]1,1.02 ± 0.032
8,COc1ncnc(NS(=O)(=O)c2ccc(N)cc2)c1OC,1.02 ± 0.13
16,C/C(=C(\CCOP(=O)(O)O)SC(=O)c1ccccc1)N(C=O)Cc1cnc(C)nc1N,1.1 ± 0.045
17,CN(Cc1cnc2nc(N)nc(N)c2n1)c1ccc(C(=O)NC(CCC(=O)O)C(=O)O)cc1 (racemic),0.665 ± 0.054
22,O=C1CN(/N=C/c2ccc([N+](=O)[O-])o2)C(=O)N1,1.04 ± 0.024

# Look-ups from the list:
# Under normalized growth, COc1ncnc(NS(=O)(=O)c2ccc(N)cc2)c1OC is listed with 1.02 ± 0.13
# Under normalized growth, COc1ccc(C(=O)c2ccccc2)c(O)c1 is listed with 0.932 ± 0.015
# Under normalized growth, CN(Cc1cnc2nc(N)nc(N)c2n1)c1ccc(C(=O)NC(CCC(=O)O)C(=O)O)cc1 (racemic) is listed with 0.665 ± 0.054

# Next structures.

row,SMILES,normalized growth
1,Cc1ccccc1OCC(O)CO (stereo not given),0.973 ± 0.059
2,CC(C)(C)C(=O)C(Oc1ccc(Cl)cc1)n1ccnc1 (stereo not given),1.13 ± 0.038
3,CN[C@@H]1[C@@H](O)[C@@H](O[C@@H]2[C@@H](O)[C@H](O[C@H]3OC(CN)=CC[C@H]3N)[C@@H](N)C[C@H]2N)OC[C@]1(C)O,0.947 ± 0.036
4,Cc1cc(NS(=O)(=O)c2ccc(N)cc2)no1,1.01 ± 0.022
5,CC1(C)S[C@@H]2[C@H](NC(=O)[C@H](C(=O)O)c3ccsc3)C(=O)N2[C@H]1C(=O)O,1.01 ± 0.022
6,CC1(O)CCC(C(C)(C)O)CC1 (stereo not given),0.885 ± 0.026
7,CCOC(=O)n1ccn(C)c1=S,0.979 ± 0.083
8,CC(C)OC(=O)CCC/C=C\C[C@@H]1[C@@H](/C=C/[C@@H](O)COc2cccc(C(F)(F)F)c2)[C@H](O)C[C@@H]1O,1.032 ± 0.0058
9,O=C1CN(/N=C/c2ccc(-c3ccc([N+](=O)[O-])cc3)o2)C(=O)N1,1.07 ± 0.017
10,CCC(=O)Oc1ccc2c(c1)CC[C@@H]1[C@@H]2CC[C@]2(C)[C@@H](OC(=O)CC)CC[C@@H]12,0.98 ± 0.093
11,Cc1cc2c(cc1S(N)(=O)=O)S(=O)(=O)CCC2,0.95 ± 0.067
12,CCCCCCc1ccc(O)cc1O.Nc1c2ccccc2nc2ccccc12,1.02 ± 0.021
13,CC1(C)S[C@@H]2[C@H](NC(=O)[C@H](NC(=O)N3CCNC3=O)c3ccccc3)C(=O)N2[C@H]1C(=O)O,1.12 ± 0.048
14,CC(C)c1ccc2oc3nc(N)c(C(=O)O)cc3c(=O)c2c1,0.947 ± 0.05
15,CCCCCCCCCc1ccc(OCCOCCOCCOCCOCCOCCOCCOCCOCCO)cc1,0.936 ± 0.032
16,NC(=O)c1cc[n+](CC2=C(C(=O)O)N3C(=O)[C@@H](NC(=O)[C@@H](c4ccccc4)S(=O)(=O)[O-])[C@H]3SC2)cc1,0.97 ± 0.072
17,COC(=O)Nc1nc2cc(C(=O)c3ccccc3)ccc2[nH]1,0.965 ± 0.036
18,CC(CCc1ccccc1)NCC(O)c1ccc(O)c(C(N)=O)c1 (stereo not given),0.886 ± 0.049
19,CCOC(=O)[C@H](CCc1ccccc1)N[C@@H](C)C(=O)N1Cc2ccccc2C[C@H]1C(=O)O,1.04 ± 0.021
20,Cc1oncc1C(=O)Nc1ccc(C(F)(F)F)cc1,0.942 ± 0.088
21,O=C(O)c1cccnc1Nc1cccc(C(F)(F)F)c1,1.11 ± 0.033
22,C[N+](C)(C)CCCCCC[N+](C)(C)C,0.966 ± 0.044

row,SMILES,normalized growth
1,CN(C)/N=N/c1[nH]cnc1C(N)=O,1.15 ± 0.064
2,Cc1onc(-c2c(Cl)cccc2Cl)c1C(=O)N[C@@H]1C(=O)N2[C@@H]1SC(C)(C)[C@@H]2C(=O)O,1.02 ± 0.036
3,CN1C(C)(C)CCCC1(C)C,1.08 ± 0.058
4,CC(C)(C(=O)O)c1ccc(C(O)CCCN2CCC(C(O)(c3ccccc3)c3ccccc3)CC2)cc1 (stereo not given),0.993 ± 0.21
5,CN(C)CCCN1c2ccccc2Sc2ccccc21,1.02 ± 0.032
6,NC(Cc1ccc(Cl)cc1)C(=O)O (stereo not given),1.06 ± 0.043
7,Cc1cc(C(C)(C)C)c(O)c(C)c1CC1=NCCN1,1.05 ± 0.024
8,CSc1ccc2c(c1)C(N1CCN(C)CC1)Cc1ccccc1S2 (stereo not given),1.2 ± 0.16
9,CC(C(=O)O)c1ccc2c(c1)Cc1cccnc1O2 (stereo not given),1.18 ± 0.056
10,C[C@H]1COc2c(C3(N)CC3)c(F)cc3c(=O)c(C(=O)O)cn1c23,0.008373 ± 7.5e-05
11,CC(=O)Nc1ccccc1,0.94 ± 0.088
12,COC(=O)C1=C(C)NC(C)=C(C(=O)OCCN2CCN(C(c3ccccc3)c3ccccc3)CC2)C1c1cccc([N+](=O)[O-])c1 (stereo not given),0.958 ± 0.046
13,C[N+]1(C)[C@@H]2CC[C@H]1C[C@@H](OC(=O)C(O)c1ccccc1)C2 (stereo not given in full),0.976 ± 0.081
14,Oc1ncnc2[nH]ncc12,0.945 ± 0.069
15,C[C@]12CCC(=O)C=C1CC[C@@H]1[C@@H]2[C@@H](O)C[C@@]2(C)[C@H]1CC[C@]2(O)C(=O)CO,0.95 ± 0.036
16,CNCCCC1c2ccccc2C=Cc2ccccc21,0.966 ± 0.049
17,CCOC(=O)C1=C[C@@H](OC(CC)CC)[C@H](NC(C)=O)[C@@H](N)C1,1.11 ± 0.058
18,CCCc1cc(=O)[nH]c(=S)[nH]1,1.072 ± 0.0074
19,COc1ccc(CCN(C)CCCC(C#N)(c2ccc(OC)c(OC)c2)C(C)C)cc1OC (stereo not given),0.924 ± 0.036
20,CN(N=O)C(=O)N[C@H]1C(O)O[C@H](CO)[C@@H](O)[C@@H]1O (mixture of isomers),0.929 ± 0.021
21,CO/N=C(\C(=O)N[C@@H]1C(=O)N2C(C(=O)OCOC(=O)C(C)(C)C)=C(/C=C\c3scnc3C)CS[C@H]12)c1csc(N)n1,0.921 ± 0.015
22,O=C(OC[C@H]1O[C@@H](OC(=O)c2cc(O)c(O)c(OC(=O)c3cc(O)c(O)c(O)c3)c2)[C@H](OC(=O)c2cc(O)c(O)c(OC(=O)c3cc(O)c(O)c(O)c3)c2)[C@@H](OC(=O)c2cc(O)c(O)c(OC(=O)c3cc(O)c(O)c(O)c3)c2)[C@@H]1OC(=O)c1cc(O)c(O)c(OC(=O)c2cc(O)c(O)c(O)c2)c1)c1cc(O)c(O)c(OC(=O)c2cc(O)c(O)c(O)c2)c1,1.08 ± 0.013

row,SMILES,normalized growth
1,CCCCC(=O)O[C@H]1CC[C@H]2[C@@H]3CCc4cc(O)ccc4[C@H]3CC[C@]12C,1.08 ± 0.17
2,Cc1ccc(Nc2c(F)cccc2Cl)c(CC(=O)O)c1,1.11 ± 0.053
3,CN1CCc2c(c3ccccc3n2Cc2ccccc2)C1,1.14 ± 0.035
4,Fc1ccc(C(c2ccc(F)cc2)N2CCN(C/C=C/c3ccccc3)CC2)cc1,1.09 ± 0.039
5,Cc1cccc(C(=O)O)c1O,1.09 ± 0.034
6,Cc1ccc2c(Br)cc(Br)c(OC(=O)c3ccccc3)c2n1,0.726 ± 0.064
7,CN[C@@H]1[C@H](O[C@H]2[C@H](O[C@H]3[C@H](O)[C@@H](O)[C@H](N=C(N)N)[C@@H](O)[C@@H]3N=C(N)N)O[C@@H](C)[C@]2(O)C=O)O[C@@H](CO)[C@H](O)[C@H]1O,0.989 ± 0.053
8,CC1(C)S[C@@H]2[C@H](NC(=O)[C@H](N)c3ccc(O)cc3)C(=O)N2[C@H]1C(=O)O,0.945 ± 0.023
9,COc1cccc2c1C(=O)c1c(O)c3c(c(O)c1C2=O)C[C@@](O)(C(=O)CO)C[C@@H]3O[C@H]1C[C@H](N)[C@H](O)[C@H](C)O1,0.988 ± 0.015
10,OCCOCCN1CCN(C2=Nc3ccccc3Sc3ccccc32)CC1,1.09 ± 0.025
11,COc1cc(O)c(C(=O)c2ccccc2)cc1S(=O)(=O)O,1 ± 0.011
12,CCCCCCCCCC(=O)N[C@@H](Cc1c[nH]c2ccccc12)C(=O)N[C@@H](CC(N)=O)C(=O)N[C@@H](CC(=O)O)C(=O)N[C@@H]1C(=O)NCC(=O)N[C@@H](CCCN)C(=O)N[C@@H](CC(=O)O)C(=O)N[C@H](C)C(=O)N[C@@H](CC(=O)O)C(=O)NCC(=O)N[C@H](CO)C(=O)N[C@@H]([C@H](C)CC(=O)O)C(=O)N[C@@H](CC(=O)c2ccccc2N)C(=O)O[C@@H]1C [DAPTOMYCIN (5 millimolar/DMSO)],1.02 ± 0.057
13,N=C(N)NC(=O)Cc1c(Cl)cccc1Cl,1.17 ± 0.04
14,N[C@@H](Cc1cc(I)c(Oc2cc(I)c(O)c(I)c2)c(I)c1)C(=O)O,1.03 ± 0.039
15,C[n+]1cc2c3c(ccc2c2ccc4cc5c(cc4c21)OCO5)OCO3,1.87 ± 0.19
16,Nc1ncnc2c1ncn2[C@@H]1O[C@H](CO)[C@@H](O)[C@H]1O,0.924 ± 0.041
17,Clc1ccc(CSC(Cn2ccnc2)c2ccc(Cl)cc2Cl)cc1 (stereo not given),0.693 ± 0.022
18,CC(=O)O[C@@]12CO[C@@H]1C[C@H](O)[C@@]1(C)C(=O)[C@H](O)C3=C(C)[C@@H](OC(=O)[C@H](O)[C@@H](NC(=O)OC(C)(C)C)c4ccccc4)C[C@@](O)([C@@H](OC(=O)c4ccccc4)[C@H]21)C3(C)C,1.47 ± 0.11
19,C=CC1=C(C)c2cc3[nH]c(cc4nc(cc5[nH]c(cc1n2)c(C)c5CCC(=O)O)C(CCC(=O)O)=C4C)c(C)c3C=C,1.05 ± 0.04
